# Screen size: about 31,000 sequences; about 1,400 (4.5%) were called active.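 The calls were made as follows: active = median seed-adjusted z-score above 1 or below -1; inactive = the rest.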 The list shows a part of the results.
# Test: Novel Modifiers of Survival Motor Neuron (SMN) Protein: Gene Identification via Genome-wide siRNA Screen;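 also: luminescence tracks full-length SMN protein made from the SMN2 reporter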
# Details: HEK293T SMN2-luciferase reporter, siRNA knockdown, 72 h; actives lie on both sides
# Outline: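 Steps: spot 1 pmol siRNA, add Lipofectamine RNAiMax in serum-free DMEM, seed HEK293T SMN2–luciferase reporter cells; incubate 72 h at 37 °C; add ONE-Glo; normalize luminescence to control siRNA, log10, MAD. Candidates: |MAD| > 1.0.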
row,Sequence,median seed-adjusted z-score
1,GGAGGUCUCAAGUUCAACATT against LENG8,inactive: -0.00539
2,CGAAUCAUAUGAUCUCCUATT against SLC30A5,inactive: 0.401
3,CACCGGUGAGAUUCCCUAUTT against ZNF546,inactive: 0.497
4,CGAAGACUUUUCAAUCCAATT against BANK1,inactive: 0.962
5,GGAUGGUCUCAAUCAGACATT against LARP4,inactive: -0.701
6,CCUUCAGUCUUAACUCCAATT against ZKSCAN1,inactive: 0.229
7,GCCGGACAAGGAGAUCGAATT against RBP5,inactive: -0.748
8,GGCUAAAGGAAAAUCUAUATT against AADAC,inactive: 0.0318
9,GUGAUACAGUGGAAGUACATT against SLC30A1,inactive: 0.314
10,CCACCGACACUUUUAACUATT against CPA1,inactive: -0.187
11,GACAGAAGAGUAACCGGAATT against SIGLEC7,inactive: -0.296
12,GGCUCAGUAUGACGAUGUUTT against KRT85,inactive: -0.126
13,CGGACUUCUUACUCGCAGATT against ATMIN,inactive: -0.55
14,CGAAGAUGUCUUUACGGAATT against SPTB,inactive: 0.153
15,GGAGUAAACAACAUACUGATT against SPZ1,inactive: 0.535
16,AGAACUUCAUCAUUCCAAATT against PPP2R4,inactive: 0.318
17,GCGACGAUGAGGAAGGUUATT against EEF2K,inactive: 0
18,CCACGCAGGUGUUCUUCAATT against ATP5D,inactive: 0
19,GAAUAGAUACGCGAAUGUATT against PTPRD,inactive: 0.425
20,ACACGUUCAUGGACCUGAUTT against OTUB1,inactive: 0.598
21,GACCACCUAGUGAUAUAUATT against NUDT9,inactive: 0.277
22,CGCUGUUGGAUUUAAUGGATT against EPN2,inactive: -0.00173

row,Sequence,median seed-adjusted z-score
1,GAGAGCAUGUGAUUCGUUATT against SRPX2,inactive: 0.101
2,GACUCCUUGCUGAAUCUGATT against CLDN1,inactive: 0.307
3,CCGAAGUUCUUAUCUUGUUTT against ZNF434,inactive: 0.545
4,CAUAGUCACAUGAUUAAUATT against POSTN,inactive: -0.45
5,CGGCACUUCCUGACCCUAUTT against AANAT,inactive: -0.168
6,GCUCCUUGGUACUUAGAUUTT against HEXB,inactive: 0.0101
7,GCUUCAAGGUCAACUCAAATT against ACSBG2,inactive: 0.027
8,GAGGAAUUGUUGAUAAAGATT against MAGI2,inactive: -0.23
9,GCUCCUUGCAAGAAGUUUATT against PSMA5,inactive: -0.824
10,GAACCUUGGUUAUUACGGUTT against SETBP1,inactive: 0.0232
11,GGAUUUUAAACGAUACAAATT against ASPN,inactive: -0.0432
12,AGUGGGCGAAGGUACAAUATT against CARD17,inactive: 0.301
13,CGUUUAUUGUAAGUUGAUATT against CDK2AP1,inactive: 0.168
14,CCAGAGUUCUGUGAUCCCUTT against PNPO,inactive: -0.0845
15,CGGUGUCUCUGGAUCAGUATT against RASGRP2,inactive: -0.00329
16,GAAGGAUCUCAAACUCGAATT against NECAB1,inactive: 0.0268
17,CAUGGACUCUGUUCGCUCATT against TUBB,inactive: -0.307
18,CCUCCUUGUUAACAGCUUUTT against BST1,inactive: -0.28
19,GGUUAUGCUUGGAUGCAGATT against TFDP2,inactive: 0.85
20,CCGAAUCAUUAUGCACCAATT against OCLN,inactive: 0.232
21,GGAGCAAGGUGAUGUCACATT against MVK,inactive: -0.192
22,CGGAGACCGUACGAAAGUATT against A2M,active: -1.96

row,Sequence,median seed-adjusted z-score
1,CCGUGAAUAUUAUAAGGGATT against ZNF214,inactive: 0.467
2,CUAUAUCGGUGCUCCAAAATT against IFNAR1,inactive: 0.0327
3,CAUCAGUCAUAAUGCCUAUTT against MAP1D,inactive: 0.155
4,GACUAACAUUUAUCUAGAUTT against PI4KA,inactive: 0
5,GCUCGUGCCUUAGUUCGAATT against ABCB5,inactive: 0.495
6,CCUCUAACGUACCAUCUAATT against OLAH,inactive: -0.44
7,CAGUCAAGCUGAUCCGCUATT against PKD2L1,inactive: 0.445
8,CAACAAGGGCAACAAGAAATT against CEL,inactive: 0
9,AGCUCUUAUUAGCUGCAUATT against MS4A7,inactive: 0.0794
10,CGAUAUCAGGAGAGGUUCATT against SPRYD3,inactive: 0.207
11,GCUGCUUGCAGUAACCUUATT against COL1A2,inactive: 0.481
12,AGCUGGAUAAGGUGAAUUUTT against IKBKE,inactive: 0.122
13,CCCUCUAACUGCUCGGAUATT against DNASE2,active: -1.23
14,CCUGCAGUGCAGUACCUAUTT against GPS2,inactive: 0
15,CCUCUAUACUGAUAACGAUTT against GABRB3,inactive: 0.0757
16,CAGUCGUCAUAAUACUGCATT against SMC4,inactive: 0.646
17,GCUGCCGCCCAAUGUCAUATT against CITED2,inactive: -0.0248
18,GGACUUUUUCAACGAGCAATT against NLGN1,inactive: 0.187
19,GCUCAUUACUUAUUAUACATT against ZNF568,inactive: 0.501
20,GGAAAGGAGACAUGCGUAATT against HMOX2,inactive: 0
21,GAAAAAUUGUGAGAUCGUATT against GLYATL1,inactive: 0.0148
22,GGAUUGGAACCAGUACUCATT against HELZ,inactive: 0.0778

row,Sequence,median seed-adjusted z-score
1,GAAAUAGACUAAGUCUUCUTT against RGS18,inactive: -0.0369
2,UCACGGCUCUGUUGAAUGUTT against DUSP4,inactive: -0.176
3,GGAUGGGAGCUACAGUUUUTT against SLC25A11,inactive: -0.731
4,ACUUCGAGGUGUCCCAUGATT against CPNE6,inactive: -0.528
5,ACGUGGUGCUGAUGUGCUATT against RHOH,inactive: 0.443
6,GGUACCAAGUCUACCAUUATT against PAN2,inactive: -0.139
7,GAAGGUUCAAGAUUAUCUATT against UGP2,inactive: 0.0766
8,GAACAUCGCUACCUAUGAATT against PRKAR2B,inactive: -0.777
9,GGAUGUGCUGUCGACAAGATT against INHBC,inactive: -0.66
10,GCACGCUAAUUCUAUGGUUTT against SCYE1,inactive: 0.437
11,CCAUCCAGGUGGUAAGGAATT against BANK1,inactive: 0.962
12,GCUGAUUUGUGGGAUCUGUTT against TRIM13,inactive: 0.712
13,GGAGUGUCUUGUGAAGUCATT against BCKDHB,inactive: 0.366
14,GGUUUGUCCCUUCGCUAUATT against LRRTM3,inactive: -0.0808
15,CCUGGAGUCUAGUCGUUUUTT against NDST2,inactive: -0.0582
16,CCAACACGGAGGUUGCAAATT against RIMS2,inactive: 0.534
17,UGACAUCUAUGAAGAGUAUTT against DNAI2,inactive: 0.12
18,GCGAUGCCUAUAAAACCUATT against TRYX3,active: 2.3
19,GCAGAAUGGGAGUACUCAATT against ZNF397,inactive: -0.107
20,CAUUCGCCUUCGAAACUGUTT against ABCB9,inactive: 0.151
21,CCUCGACAGUGAAUGCAAATT against ABCF3,inactive: 0.0759
22,AGAUCAAGCUCCUCAACAATT against KRT4,inactive: 0.336

# As a short view, part of the list above:
row,Sequence,median seed-adjusted z-score
13,CCCUCUAACUGCUCGGAUATT against DNASE2,active: -1.23
14,CCUGCAGUGCAGUACCUAUTT against GPS2,inactive: 0
15,CCUCUAUACUGAUAACGAUTT against GABRB3,inactive: 0.0757
16,CAGUCGUCAUAAUACUGCATT against SMC4,inactive: 0.646
17,GCUGCCGCCCAAUGUCAUATT against CITED2,inactive: -0.0248
18,GGACUUUUUCAACGAGCAATT against NLGN1,inactive: 0.187
19,GCUCAUUACUUAUUAUACATT against ZNF568,inactive: 0.501
20,GGAAAGGAGACAUGCGUAATT against HMOX2,inactive: 0
21,GAAAAAUUGUGAGAUCGUATT against GLYATL1,inactive: 0.0148
22,GGAUUGGAACCAGUACUCATT against HELZ,inactive: 0.0778
1,GAAAUAGACUAAGUCUUCUTT against RGS18,inactive: -0.0369
2,UCACGGCUCUGUUGAAUGUTT against DUSP4,inactive: -0.176
3,GGAUGGGAGCUACAGUUUUTT against SLC25A11,inactive: -0.731
4,ACUUCGAGGUGUCCCAUGATT against CPNE6,inactive: -0.528
5,ACGUGGUGCUGAUGUGCUATT against RHOH,inactive: 0.443
6,GGUACCAAGUCUACCAUUATT against PAN2,inactive: -0.139
7,GAAGGUUCAAGAUUAUCUATT against UGP2,inactive: 0.0766
8,GAACAUCGCUACCUAUGAATT against PRKAR2B,inactive: -0.777
9,GGAUGUGCUGUCGACAAGATT against INHBC,inactive: -0.66
10,GCACGCUAAUUCUAUGGUUTT against SCYE1,inactive: 0.437
11,CCAUCCAGGUGGUAAGGAATT against BANK1,inactive: 0.962
12,GCUGAUUUGUGGGAUCUGUTT against TRIM13,inactive: 0.712
13,GGAGUGUCUUGUGAAGUCATT against BCKDHB,inactive: 0.366
14,GGUUUGUCCCUUCGCUAUATT against LRRTM3,inactive: -0.0808
15,CCUGGAGUCUAGUCGUUUUTT against NDST2,inactive: -0.0582
16,CCAACACGGAGGUUGCAAATT against RIMS2,inactive: 0.534
17,UGACAUCUAUGAAGAGUAUTT against DNAI2,inactive: 0.12
18,GCGAUGCCUAUAAAACCUATT against TRYX3,active: 2.3
19,GCAGAAUGGGAGUACUCAATT against ZNF397,inactive: -0.107
20,CAUUCGCCUUCGAAACUGUTT against ABCB9,inactive: 0.151
21,CCUCGACAGUGAAUGCAAATT against ABCF3,inactive: 0.0759

# The list goes on.

row,Sequence,median seed-adjusted z-score
1,GUAGUGAAGUGUAUCCGGATT against ANXA6,active: -1.01
2,CAAUAAAAUUUGCGAAGGATT against HOXB9,inactive: 0.717
3,CCCUAAGUCCAACUACUAATT against HBB,inactive: -0.151
4,GCAUGUUGGUUCACUAUGATT against TPST1,inactive: -0.00547
5,GCUUAUUAGCCUCCAAUUUTT against ZSCAN5A,inactive: 0.31
6,GGCUGAUUUCUGUAACAUATT against SMG6,inactive: -0.265
7,GCAGCAUUCGUAAGAGUCATT against HNF4G,inactive: 0.01
8,GGACGAUGCUGAUACGGUATT against NOP2,active: 1.15
9,GAAGAGCCGUUUGAUCCUATT against GRIP1,inactive: 0.337
10,GAACUGCUCAGGACUAUAATT against TBRG1,active: -1.47
11,GGUCCACGUUUAUUGCCUUTT against SLC43A2,inactive: -0.202
12,GCUCAUAUGUAGUACCUAUTT against DSC2,inactive: -0.0641
13,GGUCAACUCUUAGAUUACATT against ZFP1,inactive: 0.0391
14,GCCUAAUUCCUAUUACCCATT against PTPRM,inactive: 0
15,GAGCAGAUCCAGUACCACATT against CBS,inactive: -0.0696
16,GGCGACAGAUGUGAAAGAATT against LDLR,inactive: -0.142
17,CAAAGAUCAUGAUAUUCCATT against JUB,inactive: -0.0898
18,UGGGUUAUGCUACCAAGUATT against HAS1,inactive: -0.416
19,GAGGCGCACUUCAAGCAUATT against CENTA1,inactive: -0.555
20,GAGACUUGGUUAUUAAGUATT against KPNA2,inactive: 0.157

# From PubChem BioAssay AID1347426 (Functional Genomics Laboratory (NCATS/FGL), 2020)
